Test results from PMC10762086.
No constants are given. Whether binding was seen depends on the method and setting. Binding seen in cells or lysates may run through a third protein. Some binding calls cover weakened binding; strength is not graded here. Each block holds one substance with its values, some of them ahead of it.

Sequences of proteins named here, by UniProt entry; tags and fusion partners are left off. A change or cut given only in a name is not applied to a line headed by its entry.
UniProt P18901: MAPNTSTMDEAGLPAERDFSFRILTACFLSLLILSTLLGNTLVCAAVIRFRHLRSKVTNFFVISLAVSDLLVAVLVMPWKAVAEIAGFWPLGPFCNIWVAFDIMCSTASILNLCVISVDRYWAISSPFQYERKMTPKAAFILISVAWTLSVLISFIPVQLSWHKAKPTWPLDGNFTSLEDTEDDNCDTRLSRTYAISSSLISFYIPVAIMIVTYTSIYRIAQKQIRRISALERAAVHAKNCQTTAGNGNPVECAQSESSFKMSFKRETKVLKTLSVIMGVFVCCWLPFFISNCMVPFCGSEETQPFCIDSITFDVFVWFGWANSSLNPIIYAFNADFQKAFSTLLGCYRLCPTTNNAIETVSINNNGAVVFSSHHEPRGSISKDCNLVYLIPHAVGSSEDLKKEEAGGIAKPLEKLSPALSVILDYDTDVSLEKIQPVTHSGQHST

How the values were obtained:
[1] = target: GluN1-GluN2B NMDAR: GluN1-GFP co-expressed with GluN2B in COS-7 cells (UniProt P35439); assay: FRET or BRET; frequency-domain FRET-FLIM in COS-7 cells co-transfected 1:1:1 with GluN1-GFP, GluN2 subunit and D1R-mCherry; GFP lifetime read 20-24 hours after transfection
[2] = target: GluN1-GluN2A NMDAR: carboxyl terminally tagged GluN1-GFP co-expressed with HA-GluN2A in COS-7 cells (UniProt P35439); assay: as above
[3] = target: D2R, endogenous in rat hippocampus (rat (endogenous in hippocampus)) (UniProt P61169); assay: co-IP; rat hippocampus protein extract (500-700 µg; P8 and P36 animals) in lysis buffer with 150 mM NaCl, 0.5% deoxycholate, 1% NP-40, 1% Triton X-100, 0.1% SDS, pH 7.4; precipitated with antibodies against D1R or D2R (2 µg) on protein A/G agarose, 4 °C, 12 hours; blotted for GluN2A or GluN2B
[4] = target: D1R, endogenous in rat hippocampus (rat (endogenous in hippocampus)) (UniProt P18901); assay: as above

binding [1]: binds | binding [2]: binds
Substance: carboxyl terminally tagged D1R (WT)-mCherry (from UniProt P18901 1-446) (receptor)

binding [3]: binds
Substance: GluN2B subunit of the NMDAR, endogenous in rat hippocampus (from UniProt Q00960 27-1482)

binding [4]: binds
Substance: GluN2A subunit of the NMDAR, endogenous in rat hippocampus (from UniProt Q00959 23-1464)

binding [2]: binds
Substance: phosphomimic form of D1R, carboxyl terminally tagged D1R (S397D)-mCherry (from UniProt P18901 1-446) (receptor)
